The record followed here is publication PMC7206739.

By UniProt entry, the sequences of proteins in these tests, tags left out.
UniProt Q9UNS2: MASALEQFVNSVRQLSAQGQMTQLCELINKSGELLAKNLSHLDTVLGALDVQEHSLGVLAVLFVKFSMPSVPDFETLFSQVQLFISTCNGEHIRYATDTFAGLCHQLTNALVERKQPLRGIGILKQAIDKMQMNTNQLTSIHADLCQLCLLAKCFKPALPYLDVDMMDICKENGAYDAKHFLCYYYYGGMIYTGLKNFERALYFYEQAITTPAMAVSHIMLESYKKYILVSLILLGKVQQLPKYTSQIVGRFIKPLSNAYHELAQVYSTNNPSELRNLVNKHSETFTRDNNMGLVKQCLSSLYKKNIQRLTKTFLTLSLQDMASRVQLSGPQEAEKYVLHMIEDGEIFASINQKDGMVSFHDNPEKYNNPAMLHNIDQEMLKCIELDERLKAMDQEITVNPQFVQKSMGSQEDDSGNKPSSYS

No constants are given. Whether binding was seen depends on the method and setting. Binding seen in cells or lysates may run through a third protein. Some entries that bind do so weakly or less than the wild type. Tags and fused reporters may be left off the sequences shown.

The test addresses T1, HA-tagged mouse NSMCE4A (mouse) (UniProt G3XA30).
T1 sequence: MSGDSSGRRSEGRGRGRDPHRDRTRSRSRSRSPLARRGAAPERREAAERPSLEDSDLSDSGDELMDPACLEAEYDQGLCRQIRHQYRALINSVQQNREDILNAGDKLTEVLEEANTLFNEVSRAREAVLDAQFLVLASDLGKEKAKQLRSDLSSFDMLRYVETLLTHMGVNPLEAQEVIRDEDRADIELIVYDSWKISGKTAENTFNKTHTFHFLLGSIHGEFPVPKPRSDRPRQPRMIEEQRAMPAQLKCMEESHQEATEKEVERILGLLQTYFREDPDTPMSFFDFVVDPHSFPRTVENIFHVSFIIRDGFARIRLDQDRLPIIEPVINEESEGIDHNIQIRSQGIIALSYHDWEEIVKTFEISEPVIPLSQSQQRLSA
Briefly: co-IP; FLAG-tagged GPS1 and HA-tagged NSMCE4A expressed or co-expressed in HEK 293T cells; anti-FLAG or anti-HA antibody coupled to Dynabeads; lysis buffer with 100 mM NaCl, 1 mM DTT; western blot. (Immunoblotting shows a protein as a band on a membrane.)

Take CSN3 (from UniProt Q9UNS2 1-423): the binding entry was “binds”.
